Results from article PMC3252370.
Results are given in words; binding and its absence hold for the method and conditions named. Binding seen in cells or lysates may run through a third protein. Some binding calls cover weakened binding; strength is not graded here. For some assays here: Where a sequence is shown, tags or fusion partners need not be part of it.

The chains behind the UniProt entries cited, without tags or fusion partners. Residues count along the entry.
UniProt P02751, residues 32-2477: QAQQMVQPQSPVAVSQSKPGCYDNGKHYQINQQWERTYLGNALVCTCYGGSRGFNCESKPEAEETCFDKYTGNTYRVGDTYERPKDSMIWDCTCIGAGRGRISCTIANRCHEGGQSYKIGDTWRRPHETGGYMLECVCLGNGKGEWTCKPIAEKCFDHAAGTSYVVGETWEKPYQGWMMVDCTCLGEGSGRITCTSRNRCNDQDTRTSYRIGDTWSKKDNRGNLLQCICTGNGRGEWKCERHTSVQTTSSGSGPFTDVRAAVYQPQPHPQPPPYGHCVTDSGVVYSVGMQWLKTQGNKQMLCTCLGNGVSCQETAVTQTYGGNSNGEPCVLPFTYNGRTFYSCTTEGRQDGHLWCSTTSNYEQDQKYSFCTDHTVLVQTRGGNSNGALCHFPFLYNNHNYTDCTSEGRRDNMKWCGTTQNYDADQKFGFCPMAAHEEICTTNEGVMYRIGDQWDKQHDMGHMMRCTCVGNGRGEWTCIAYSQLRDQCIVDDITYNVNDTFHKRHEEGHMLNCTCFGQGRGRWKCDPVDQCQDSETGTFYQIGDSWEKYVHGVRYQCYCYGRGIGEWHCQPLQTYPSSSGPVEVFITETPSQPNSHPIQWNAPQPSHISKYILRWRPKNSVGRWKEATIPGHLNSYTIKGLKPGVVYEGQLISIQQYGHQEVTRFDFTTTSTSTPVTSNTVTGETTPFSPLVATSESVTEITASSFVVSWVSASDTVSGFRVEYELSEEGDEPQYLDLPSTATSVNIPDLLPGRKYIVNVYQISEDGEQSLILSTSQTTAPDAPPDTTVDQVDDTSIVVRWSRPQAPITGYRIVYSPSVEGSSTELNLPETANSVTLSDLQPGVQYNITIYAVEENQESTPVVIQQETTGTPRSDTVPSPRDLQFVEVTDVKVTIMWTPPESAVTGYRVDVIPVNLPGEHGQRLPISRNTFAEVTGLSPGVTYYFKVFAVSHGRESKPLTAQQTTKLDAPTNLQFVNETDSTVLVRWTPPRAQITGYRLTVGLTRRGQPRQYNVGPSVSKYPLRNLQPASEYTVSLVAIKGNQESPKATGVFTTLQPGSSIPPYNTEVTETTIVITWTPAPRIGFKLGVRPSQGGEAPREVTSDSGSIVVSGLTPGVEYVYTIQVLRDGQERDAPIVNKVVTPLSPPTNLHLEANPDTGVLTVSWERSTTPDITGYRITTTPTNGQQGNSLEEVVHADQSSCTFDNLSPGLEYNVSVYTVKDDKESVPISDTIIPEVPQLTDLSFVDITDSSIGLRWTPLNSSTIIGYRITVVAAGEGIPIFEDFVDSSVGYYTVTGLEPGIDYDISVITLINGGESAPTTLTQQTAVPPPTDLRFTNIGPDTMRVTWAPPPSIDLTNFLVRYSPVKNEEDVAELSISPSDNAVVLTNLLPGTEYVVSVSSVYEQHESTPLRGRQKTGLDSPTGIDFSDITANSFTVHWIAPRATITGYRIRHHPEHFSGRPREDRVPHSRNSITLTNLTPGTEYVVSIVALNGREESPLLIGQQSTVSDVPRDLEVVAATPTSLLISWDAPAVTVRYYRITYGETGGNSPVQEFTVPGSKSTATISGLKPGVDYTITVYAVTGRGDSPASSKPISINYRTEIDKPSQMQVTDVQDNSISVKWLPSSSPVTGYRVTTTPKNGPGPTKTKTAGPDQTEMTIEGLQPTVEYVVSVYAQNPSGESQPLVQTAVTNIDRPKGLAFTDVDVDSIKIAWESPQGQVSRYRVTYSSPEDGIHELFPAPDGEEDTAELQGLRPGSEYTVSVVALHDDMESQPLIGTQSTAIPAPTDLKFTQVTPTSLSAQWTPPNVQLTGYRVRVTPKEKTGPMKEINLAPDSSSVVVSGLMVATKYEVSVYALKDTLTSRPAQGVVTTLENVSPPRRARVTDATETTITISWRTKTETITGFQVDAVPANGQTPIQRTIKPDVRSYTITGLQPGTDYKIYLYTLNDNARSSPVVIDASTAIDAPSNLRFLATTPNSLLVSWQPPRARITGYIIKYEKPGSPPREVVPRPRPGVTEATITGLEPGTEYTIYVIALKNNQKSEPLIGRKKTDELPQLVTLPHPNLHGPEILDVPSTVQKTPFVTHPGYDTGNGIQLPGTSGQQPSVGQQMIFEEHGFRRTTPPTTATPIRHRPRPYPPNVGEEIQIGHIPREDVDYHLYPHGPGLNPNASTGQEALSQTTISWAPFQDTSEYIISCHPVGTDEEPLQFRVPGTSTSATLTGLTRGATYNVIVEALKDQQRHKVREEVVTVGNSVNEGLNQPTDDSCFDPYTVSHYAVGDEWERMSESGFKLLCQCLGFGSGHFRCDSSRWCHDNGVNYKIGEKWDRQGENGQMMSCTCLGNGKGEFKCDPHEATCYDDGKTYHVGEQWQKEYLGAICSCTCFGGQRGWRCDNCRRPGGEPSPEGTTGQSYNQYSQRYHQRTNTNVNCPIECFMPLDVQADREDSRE

T1: Robo4 (Roundabout 4) (human (endogenous in L-LECs)) (UniProt Q8WZ75)
T1 sequence: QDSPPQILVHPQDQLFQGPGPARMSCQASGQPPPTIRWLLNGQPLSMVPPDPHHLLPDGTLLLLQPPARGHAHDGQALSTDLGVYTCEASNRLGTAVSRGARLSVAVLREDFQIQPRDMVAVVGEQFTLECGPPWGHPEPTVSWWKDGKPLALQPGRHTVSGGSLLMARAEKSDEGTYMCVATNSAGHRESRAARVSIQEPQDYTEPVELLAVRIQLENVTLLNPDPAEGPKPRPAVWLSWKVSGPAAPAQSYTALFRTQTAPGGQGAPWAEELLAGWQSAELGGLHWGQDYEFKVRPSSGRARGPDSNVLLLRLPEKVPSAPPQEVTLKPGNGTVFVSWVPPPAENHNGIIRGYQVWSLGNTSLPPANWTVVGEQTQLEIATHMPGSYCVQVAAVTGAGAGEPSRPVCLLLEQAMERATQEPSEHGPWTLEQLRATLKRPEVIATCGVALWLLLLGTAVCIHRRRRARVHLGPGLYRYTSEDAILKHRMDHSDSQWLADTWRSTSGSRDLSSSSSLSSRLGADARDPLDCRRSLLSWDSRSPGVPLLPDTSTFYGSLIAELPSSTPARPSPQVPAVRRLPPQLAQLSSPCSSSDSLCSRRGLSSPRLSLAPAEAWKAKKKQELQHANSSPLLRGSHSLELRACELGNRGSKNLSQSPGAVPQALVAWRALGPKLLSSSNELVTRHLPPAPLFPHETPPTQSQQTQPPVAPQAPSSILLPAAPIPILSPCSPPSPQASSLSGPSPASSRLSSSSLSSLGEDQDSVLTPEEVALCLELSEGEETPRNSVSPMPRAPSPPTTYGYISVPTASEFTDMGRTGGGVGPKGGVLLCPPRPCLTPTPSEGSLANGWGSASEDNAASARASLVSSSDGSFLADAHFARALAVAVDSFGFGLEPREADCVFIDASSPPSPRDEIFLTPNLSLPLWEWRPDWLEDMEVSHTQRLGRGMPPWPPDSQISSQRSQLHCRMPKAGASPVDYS

T2: RFP-tagged Robo4 (pCMV6-AC-RFP-Robo4) (UniProt Q8WZ75)
T2 sequence: T1 sequence

B1: Myc-DDK-tagged Slit2 (ligand, UniProt O94813 31-1529)
chain: QCSCSGSTVDCHGLALRSVPRNIPRNTERLDLNGNNITRITKTDFAGLRHLRVLQLMENKISTIERGAFQDLKELERLRLNRNHLQLFPELLFLGTAKLYRLDLSENQIQAIPRKAFRGAVDIKNLQLDYNQISCIEDGAFRALRDLEVLTLNNNNITRLSVASFNHMPKLRTFRLHSNNLYCDCHLAWLSDWLRQRPRVGLYTQCMGPSHLRGHNVAEVQKREFVCSGHQSFMAPSCSVLHCPAACTCSNNIVDCRGKGLTEIPTNLPETITEIRLEQNTIKVIPPGAFSPYKKLRRIDLSNNQISELAPDAFQGLRSLNSLVLYGNKITELPKSLFEGLFSLQLLLLNANKINCLRVDAFQDLHNLNLLSLYDNKLQTIAKGTFSPLRAIQTMHLAQNPFICDCHLKWLADYLHTNPIETSGARCTSPRRLANKRIGQIKSKKFRCSAKEQYFIPGTEDYRSKLSGDCFADLACPEKCRCEGTTVDCSNQKLNKIPEHIPQYTAELRLNNNEFTVLEATGIFKKLPQLRKINFSNNKITDIEEGAFEGASGVNEILLTSNRLENVQHKMFKGLESLKTLMLRSNRITCVGNDSFIGLSSVRLLSLYDNQITTVAPGAFDTLHSLSTLNLLANPFNCNCYLAWLGEWLRKKRIVTGNPRCQKPYFLKEIPIQDVAIQDFTCDDGNDDNSCSPLSRCPTECTCLDTVVRCSNKGLKVLPKGIPRDVTELYLDGNQFTLVPKELSNYKHLTLIDLSNNRISTLSNQSFSNMTQLLTLILSYNRLRCIPPRTFDGLKSLRLLSLHGNDISVVPEGAFNDLSALSHLAIGANPLYCDCNMQWLSDWVKSEYKEPGIARCAGPGEMADKLLLTTPSKKFTCQGPVDVNILAKCNPCLSNPCKNDGTCNSDPVDFYRCTCPYGFKGQDCDVPIHACISNPCKHGGTCHLKEGEEDGFWCICADGFEGENCEVNVDDCEDNDCENNSTCVDGINNYTCLCPPEYTGELCEEKLDFCAQDLNPCQHDSKCILTPKGFKCDCTPGYVGEHCDIDFDDCQDNKCKNGAHCTDAVNGYTCICPEGYSGLFCEFSPPMVLPRTSPCDNFDCQNGAQCIVRINEPICQCLPGYQGEKCEKLVSVNFINKESYLQIPSAKVRPQTNITLQIATDEDSGILLYKGDKDHIAVELYRGRVRASYDTGSHPASAIYSVETINDGNFHIVELLALDQSLSLSVDGGNPKIITNLSKQSTLNFDSPLYVGGMPGKSNVASLRQAPGQNGTSFHGCIRNLYINSELQDFQKVPMQTGILPGCEPCHKKVCAHGTCQPSSQAGFTCECQEGWMGPLCDQRTNDPCLGNKCVHGTCLPINAFSYSCKCLEGHGGVLCDEEEDLFNPCQAIKCKHGKCRLSGLGQPYCECSSGYTGDSCDREISCRGERIRDYYQKQQGYAACQTTKKVSRLECRGGCAGGQCCGPLRSKRRKYSFECTDGSSFVDEVEKVVKCGCTRCVS

Columns and labels:
[1] = molecular target: T1, Robo4 (Roundabout 4) (human (endogenous in L-LECs)); test: co-IP; Robo4 immunoprecipitated from total lysates (RIPA buffer) of L-LECs, Western blot for the partner; cells serum-starved 2 h, then treated with HIV-1 gp120 (500 ng/ml), Slit2N (500 ng/ml) or controls for 15 min, or with Slit2N 2 h and then gp120 for the times indicated
[2] = molecular target: T2, RFP-tagged Robo4 (pCMV6-AC-RFP-Robo4); test: co-IP; 293 cells co-transfected with a Robo4 expression plasmid and a Myc-tagged Slit2 expression plasmid or vector control, 48 h; Robo4 immunoprecipitated from total lysates, Western blot for c-Myc

Molecule	binding [1]	binding [2]
fibronectin (from UniProt P02751 32-2477)	binds	
B1		binds
